Values from PubChem BioAssay AID686938 (Drosophila RNAi Screening Center, 2013).
Purpose: 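Looking for CRAC channel components and the factors controlling them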 (primary screen). Cell system: Drosophila S2R+ cells. Reagent: long dsRNA against Drosophila genes, about 0.25 µg dsRNA per well, roughly 10,000 cells. Time to read-out: 5 days of knock-down before the calcium assay. Conditions: thapsigargin (SERCA pump blocker) to empty calcium stores; entry signal taken 4 min after adding it. Detection: 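Per-well fluo-4 fluorescence in two replicates, unnormalised, measured in resting cells and 4 min after store depletion by the SERCA blocker thapsigargin; ratio of the two present in few wells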. Reading the numbers: calcium entry signal: higher = stronger calcium signal after store depletion; resting calcium signal: higher = higher resting calcium signal. Rule for the call: 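Called when the plate z-score of the entry-to-rest ratio, mean of duplicates, falls below −3; wells with low overall dye signal (Fmax z below −2) or more than five off-targets excluded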. Calls: active = strongly reduced calcium entry; inactive = no strong reduction.
The deposit covers about 23,000 reagents; below is a random part of those that have a named target and a result. Of all reagents, 75 (0.33%) got an active call. 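Raw plate signals without normalisation; calls rest on plate z-scores that were not deposited; ratio present for only 364 wells.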 Unmarked entries are inactive. Reagents against one gene are numbered here. Not given: the dose of the treatment.

gene,reagent no.,"calcium entry signal, replicate 1 (fluorescence units)","calcium entry signal, replicate 2 (fluorescence units)","resting calcium signal, replicate 1 (fluorescence units)","resting calcium signal, replicate 2 (fluorescence units)"
Ge-1,1,4.72e7,,2.43e7,
RpL17,1,1.15e7,1.18e7,8.80e6,8.22e6
Drsl3,1,4.03e7,2.89e7,2.58e7,1.52e7
SCAR,1,2.99e7,4.13e7,1.60e7,1.68e7
CG7907,1,3.70e7,3.68e7,4.89e7,1.74e7
eIF5B,1,2.14e7,2.04e7,1.18e7,1.08e7
eIF5B,2,1.92e7,1.75e7,1.02e7,9.78e6
CG13046,1,3.63e7,4.81e7,1.78e7,1.95e7
mei-9,1,3.12e7,4.66e7,1.55e7,2.16e7

Single entries from above.
mei-9, resting calcium signal, replicate 1 (fluorescence units): 1.55e7
eIF5B #2, calcium entry signal, replicate 1 (fluorescence units) = 1.92e7

Continued.
gene,reagent no.,"calcium entry signal, replicate 1 (fluorescence units)","calcium entry signal, replicate 2 (fluorescence units)","resting calcium signal, replicate 1 (fluorescence units)","resting calcium signal, replicate 2 (fluorescence units)"
CG3662,1,3.99e7,,2.38e7,
CG13937,1,3.65e7,3.11e7,1.95e7,1.70e7
Cyp6d2,1,3.32e7,5.26e7,1.81e7,2.63e7
CG11629,1,3.14e7,5.09e7,1.59e7,1.99e7
Cyp9c1,1,4.29e7,,2.15e7,
CG31467,1,3.39e7,3.48e7,1.75e7,1.88e7
CG30384,1,3.69e7,3.79e7,1.58e7,1.54e7
dpr18,1,3.89e7,3.40e7,1.96e7,1.52e7
CG9876,1,4.11e7,4.82e7,2.04e7,2.10e7
side-VII,1,3.23e7,4.25e7,1.50e7,1.99e7
CG3434,1,5.18e7,4.34e7,3.47e7,1.78e7
SdhD,1,4.51e7,2.83e7,2.16e7,1.35e7
CG10232,1,4.00e7,3.85e7,2.03e7,1.87e7
CG11562,1,3.83e7,4.51e7,1.83e7,1.86e7
CG10863,1,4.91e7,3.22e7,3.25e7,1.52e7
